Patent US20160101154A1
No constants are given. Whether binding was seen depends on the method and setting. Some results given as binding are weak or reduced against the parent protein; the word gives no strength.

By UniProt entry, the sequences of proteins in these tests, tags left out. Where a name states a change or a piece, a line headed by the entry shows the natural chain unless it says otherwise.
UniProt P06756: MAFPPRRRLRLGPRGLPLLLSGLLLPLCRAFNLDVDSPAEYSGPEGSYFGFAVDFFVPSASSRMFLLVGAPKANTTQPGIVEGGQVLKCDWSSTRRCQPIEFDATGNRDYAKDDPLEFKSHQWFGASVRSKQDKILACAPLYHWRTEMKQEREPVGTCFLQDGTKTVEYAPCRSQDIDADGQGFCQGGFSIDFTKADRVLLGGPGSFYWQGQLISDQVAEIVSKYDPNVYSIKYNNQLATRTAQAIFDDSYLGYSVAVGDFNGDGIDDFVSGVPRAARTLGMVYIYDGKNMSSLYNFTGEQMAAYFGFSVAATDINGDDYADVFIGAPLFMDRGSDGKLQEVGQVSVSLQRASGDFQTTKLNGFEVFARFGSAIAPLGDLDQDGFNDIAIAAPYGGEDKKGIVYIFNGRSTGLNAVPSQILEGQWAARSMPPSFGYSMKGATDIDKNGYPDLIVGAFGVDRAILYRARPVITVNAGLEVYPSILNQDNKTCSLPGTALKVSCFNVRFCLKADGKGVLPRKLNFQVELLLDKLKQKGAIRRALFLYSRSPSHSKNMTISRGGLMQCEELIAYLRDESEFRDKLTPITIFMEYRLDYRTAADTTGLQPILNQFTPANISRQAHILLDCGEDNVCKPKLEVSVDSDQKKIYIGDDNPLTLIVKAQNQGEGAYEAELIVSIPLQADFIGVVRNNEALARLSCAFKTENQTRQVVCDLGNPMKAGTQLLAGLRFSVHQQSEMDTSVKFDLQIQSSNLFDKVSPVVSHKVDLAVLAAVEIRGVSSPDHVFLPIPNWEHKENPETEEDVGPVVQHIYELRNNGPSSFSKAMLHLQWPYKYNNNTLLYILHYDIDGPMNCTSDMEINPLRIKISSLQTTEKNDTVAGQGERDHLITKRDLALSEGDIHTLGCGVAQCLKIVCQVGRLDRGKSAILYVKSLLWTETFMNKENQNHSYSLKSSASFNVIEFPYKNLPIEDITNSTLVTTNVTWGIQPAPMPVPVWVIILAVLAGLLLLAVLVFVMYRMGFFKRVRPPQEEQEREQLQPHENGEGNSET
UniProt O15123: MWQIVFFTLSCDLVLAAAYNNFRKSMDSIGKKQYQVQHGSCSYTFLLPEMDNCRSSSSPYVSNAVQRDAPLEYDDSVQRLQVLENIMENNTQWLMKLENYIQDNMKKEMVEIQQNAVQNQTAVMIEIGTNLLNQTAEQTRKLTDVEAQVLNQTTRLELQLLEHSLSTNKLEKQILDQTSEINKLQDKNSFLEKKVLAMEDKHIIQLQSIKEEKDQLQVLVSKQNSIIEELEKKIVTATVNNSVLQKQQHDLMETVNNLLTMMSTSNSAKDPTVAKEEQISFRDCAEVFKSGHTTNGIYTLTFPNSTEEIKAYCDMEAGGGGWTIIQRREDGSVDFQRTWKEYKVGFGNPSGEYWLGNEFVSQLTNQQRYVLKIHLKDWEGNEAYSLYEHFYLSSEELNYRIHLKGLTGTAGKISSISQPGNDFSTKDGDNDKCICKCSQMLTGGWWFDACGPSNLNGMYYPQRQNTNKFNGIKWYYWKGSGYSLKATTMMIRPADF

Biological target: integrin αVβ3 expressed on transfected CHO cells (UniProt P06756)
Assay: flow cytometry, FLAG-Ang2 on integrin-transfected CHO cells, anti-FLAG-R-phycoerythrin

binding: binds
Substance: Ang2 protein having FLAG sequences tagged at its N-terminal (FLAG-Ang2), wild type (from UniProt O15123 19-496) (ligand)
